16 targets from the supplement of paper PMC10849652 can be followed below.

Amino acid sequences for entries named in this document (tags omitted). A change or cut given only in a name is not applied to a line headed by its entry.
UniProt Q8N6T3: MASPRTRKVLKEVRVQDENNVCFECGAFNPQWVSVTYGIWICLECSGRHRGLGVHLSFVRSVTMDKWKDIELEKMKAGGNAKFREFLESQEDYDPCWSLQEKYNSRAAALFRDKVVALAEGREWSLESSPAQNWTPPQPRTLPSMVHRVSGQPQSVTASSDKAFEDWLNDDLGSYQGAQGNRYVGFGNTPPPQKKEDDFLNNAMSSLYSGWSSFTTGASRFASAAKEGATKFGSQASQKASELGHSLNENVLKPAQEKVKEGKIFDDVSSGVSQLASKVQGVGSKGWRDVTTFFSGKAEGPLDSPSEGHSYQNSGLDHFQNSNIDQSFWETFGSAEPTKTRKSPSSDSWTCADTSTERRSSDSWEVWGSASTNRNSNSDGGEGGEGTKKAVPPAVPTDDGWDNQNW
UniProt Q8IV38: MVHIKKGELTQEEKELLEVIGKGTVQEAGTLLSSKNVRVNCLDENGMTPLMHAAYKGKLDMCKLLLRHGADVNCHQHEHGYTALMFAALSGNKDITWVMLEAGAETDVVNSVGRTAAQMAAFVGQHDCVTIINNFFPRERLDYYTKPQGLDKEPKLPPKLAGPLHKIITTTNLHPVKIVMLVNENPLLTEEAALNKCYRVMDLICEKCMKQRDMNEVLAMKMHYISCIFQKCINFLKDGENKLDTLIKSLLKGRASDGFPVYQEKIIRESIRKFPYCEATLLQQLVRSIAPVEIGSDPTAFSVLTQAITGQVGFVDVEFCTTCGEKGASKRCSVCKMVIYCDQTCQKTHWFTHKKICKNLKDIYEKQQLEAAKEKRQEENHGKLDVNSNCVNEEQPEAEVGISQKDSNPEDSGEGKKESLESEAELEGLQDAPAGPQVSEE
UniProt Q9BQD7: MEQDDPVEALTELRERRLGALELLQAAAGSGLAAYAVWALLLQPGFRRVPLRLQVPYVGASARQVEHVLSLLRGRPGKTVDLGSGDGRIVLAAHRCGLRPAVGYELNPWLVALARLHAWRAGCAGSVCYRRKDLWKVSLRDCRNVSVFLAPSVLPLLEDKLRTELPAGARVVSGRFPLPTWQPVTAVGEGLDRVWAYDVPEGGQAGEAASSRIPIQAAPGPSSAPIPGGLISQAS
UniProt Q9Y2T2: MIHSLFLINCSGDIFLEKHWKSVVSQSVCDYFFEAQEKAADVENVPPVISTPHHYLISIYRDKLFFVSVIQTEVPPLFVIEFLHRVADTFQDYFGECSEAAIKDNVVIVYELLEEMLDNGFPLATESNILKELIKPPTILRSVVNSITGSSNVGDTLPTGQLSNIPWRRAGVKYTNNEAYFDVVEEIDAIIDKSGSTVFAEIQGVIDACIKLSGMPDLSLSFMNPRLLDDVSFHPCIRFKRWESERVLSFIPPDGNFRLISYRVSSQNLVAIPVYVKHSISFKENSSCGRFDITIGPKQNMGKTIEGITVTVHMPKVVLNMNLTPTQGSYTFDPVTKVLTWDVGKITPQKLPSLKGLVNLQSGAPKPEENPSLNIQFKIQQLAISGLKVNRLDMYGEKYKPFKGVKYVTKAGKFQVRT
UniProt Q9NP61: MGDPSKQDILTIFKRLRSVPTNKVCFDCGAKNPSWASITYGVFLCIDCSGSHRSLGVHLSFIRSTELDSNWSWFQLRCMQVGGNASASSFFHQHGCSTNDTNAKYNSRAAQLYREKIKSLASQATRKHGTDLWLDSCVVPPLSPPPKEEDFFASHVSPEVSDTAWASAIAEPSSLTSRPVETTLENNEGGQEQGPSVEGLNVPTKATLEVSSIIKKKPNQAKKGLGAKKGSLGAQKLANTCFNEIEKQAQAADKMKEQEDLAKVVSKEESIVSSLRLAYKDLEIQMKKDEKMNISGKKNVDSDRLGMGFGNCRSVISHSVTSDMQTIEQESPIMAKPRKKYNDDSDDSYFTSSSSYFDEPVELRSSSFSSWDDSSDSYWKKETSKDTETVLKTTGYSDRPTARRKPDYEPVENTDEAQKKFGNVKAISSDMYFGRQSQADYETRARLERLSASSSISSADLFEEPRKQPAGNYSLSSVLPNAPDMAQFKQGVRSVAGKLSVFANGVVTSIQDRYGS
UniProt P48444: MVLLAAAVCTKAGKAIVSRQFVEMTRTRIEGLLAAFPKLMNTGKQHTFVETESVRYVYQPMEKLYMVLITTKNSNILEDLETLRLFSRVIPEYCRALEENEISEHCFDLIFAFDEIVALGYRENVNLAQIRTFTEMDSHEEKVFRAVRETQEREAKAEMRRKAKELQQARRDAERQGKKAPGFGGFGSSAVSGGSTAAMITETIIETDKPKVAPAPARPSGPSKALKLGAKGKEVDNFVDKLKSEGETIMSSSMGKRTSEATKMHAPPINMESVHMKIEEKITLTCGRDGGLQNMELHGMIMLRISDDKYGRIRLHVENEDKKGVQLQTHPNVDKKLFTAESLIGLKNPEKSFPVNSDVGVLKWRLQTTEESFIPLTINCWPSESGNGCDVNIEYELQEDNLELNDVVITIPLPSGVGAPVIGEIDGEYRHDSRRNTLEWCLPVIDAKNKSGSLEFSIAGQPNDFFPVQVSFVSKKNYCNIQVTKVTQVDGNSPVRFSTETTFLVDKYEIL
UniProt Q9BTT0: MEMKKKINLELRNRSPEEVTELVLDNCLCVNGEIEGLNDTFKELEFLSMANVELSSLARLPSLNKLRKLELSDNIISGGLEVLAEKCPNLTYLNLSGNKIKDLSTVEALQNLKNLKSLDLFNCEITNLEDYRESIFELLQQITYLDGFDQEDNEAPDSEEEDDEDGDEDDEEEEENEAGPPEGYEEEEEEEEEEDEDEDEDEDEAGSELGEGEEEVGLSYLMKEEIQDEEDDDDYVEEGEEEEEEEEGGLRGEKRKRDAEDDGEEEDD
UniProt O95782: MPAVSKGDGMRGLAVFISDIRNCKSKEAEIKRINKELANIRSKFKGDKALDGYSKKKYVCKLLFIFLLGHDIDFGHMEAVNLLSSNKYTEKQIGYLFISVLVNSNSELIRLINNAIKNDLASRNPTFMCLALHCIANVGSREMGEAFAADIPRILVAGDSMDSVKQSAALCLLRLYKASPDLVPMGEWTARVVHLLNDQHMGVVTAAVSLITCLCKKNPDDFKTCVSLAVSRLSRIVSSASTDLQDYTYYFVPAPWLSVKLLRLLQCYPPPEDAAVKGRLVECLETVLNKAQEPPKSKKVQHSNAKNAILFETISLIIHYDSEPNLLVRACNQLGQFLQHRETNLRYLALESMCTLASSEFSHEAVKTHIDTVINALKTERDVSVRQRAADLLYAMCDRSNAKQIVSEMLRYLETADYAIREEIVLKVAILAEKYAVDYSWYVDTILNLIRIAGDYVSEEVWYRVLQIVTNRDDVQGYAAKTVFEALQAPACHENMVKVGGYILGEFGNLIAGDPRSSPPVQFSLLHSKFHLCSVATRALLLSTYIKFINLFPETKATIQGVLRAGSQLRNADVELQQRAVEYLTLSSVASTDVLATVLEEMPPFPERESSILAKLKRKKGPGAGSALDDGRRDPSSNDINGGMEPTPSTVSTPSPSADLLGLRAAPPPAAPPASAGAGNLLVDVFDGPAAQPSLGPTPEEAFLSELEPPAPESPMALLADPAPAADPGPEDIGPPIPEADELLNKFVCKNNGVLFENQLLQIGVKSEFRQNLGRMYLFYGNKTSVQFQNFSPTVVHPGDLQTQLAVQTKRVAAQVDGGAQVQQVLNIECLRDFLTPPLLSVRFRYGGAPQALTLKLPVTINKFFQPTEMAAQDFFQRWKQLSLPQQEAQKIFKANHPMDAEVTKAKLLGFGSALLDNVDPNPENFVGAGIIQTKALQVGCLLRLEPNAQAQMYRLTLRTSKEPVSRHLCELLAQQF
UniProt O94973, whole entry, looked up: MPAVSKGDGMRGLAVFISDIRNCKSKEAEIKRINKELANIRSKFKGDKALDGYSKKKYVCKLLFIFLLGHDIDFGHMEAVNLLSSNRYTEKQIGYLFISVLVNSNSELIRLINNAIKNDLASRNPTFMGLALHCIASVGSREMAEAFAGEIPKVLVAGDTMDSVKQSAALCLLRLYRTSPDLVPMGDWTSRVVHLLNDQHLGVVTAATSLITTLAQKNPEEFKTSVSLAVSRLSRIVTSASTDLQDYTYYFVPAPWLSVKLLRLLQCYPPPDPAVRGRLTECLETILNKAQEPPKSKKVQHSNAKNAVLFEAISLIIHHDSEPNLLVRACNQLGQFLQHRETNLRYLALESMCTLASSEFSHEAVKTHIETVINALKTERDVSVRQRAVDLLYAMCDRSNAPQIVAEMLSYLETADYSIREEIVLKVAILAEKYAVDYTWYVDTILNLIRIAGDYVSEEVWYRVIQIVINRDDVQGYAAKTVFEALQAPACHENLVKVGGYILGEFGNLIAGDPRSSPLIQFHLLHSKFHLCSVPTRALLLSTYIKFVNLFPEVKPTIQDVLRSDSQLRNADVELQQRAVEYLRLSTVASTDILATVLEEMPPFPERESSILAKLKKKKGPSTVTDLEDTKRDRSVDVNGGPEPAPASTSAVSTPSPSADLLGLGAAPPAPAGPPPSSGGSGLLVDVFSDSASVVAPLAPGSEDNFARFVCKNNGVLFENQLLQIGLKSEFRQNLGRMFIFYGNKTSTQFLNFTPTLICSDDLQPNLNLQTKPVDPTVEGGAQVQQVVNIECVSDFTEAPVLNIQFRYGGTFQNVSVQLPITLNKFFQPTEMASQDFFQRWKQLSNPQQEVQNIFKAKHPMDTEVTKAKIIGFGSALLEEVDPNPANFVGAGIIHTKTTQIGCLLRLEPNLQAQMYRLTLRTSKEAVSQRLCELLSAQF
UniProt Q92619: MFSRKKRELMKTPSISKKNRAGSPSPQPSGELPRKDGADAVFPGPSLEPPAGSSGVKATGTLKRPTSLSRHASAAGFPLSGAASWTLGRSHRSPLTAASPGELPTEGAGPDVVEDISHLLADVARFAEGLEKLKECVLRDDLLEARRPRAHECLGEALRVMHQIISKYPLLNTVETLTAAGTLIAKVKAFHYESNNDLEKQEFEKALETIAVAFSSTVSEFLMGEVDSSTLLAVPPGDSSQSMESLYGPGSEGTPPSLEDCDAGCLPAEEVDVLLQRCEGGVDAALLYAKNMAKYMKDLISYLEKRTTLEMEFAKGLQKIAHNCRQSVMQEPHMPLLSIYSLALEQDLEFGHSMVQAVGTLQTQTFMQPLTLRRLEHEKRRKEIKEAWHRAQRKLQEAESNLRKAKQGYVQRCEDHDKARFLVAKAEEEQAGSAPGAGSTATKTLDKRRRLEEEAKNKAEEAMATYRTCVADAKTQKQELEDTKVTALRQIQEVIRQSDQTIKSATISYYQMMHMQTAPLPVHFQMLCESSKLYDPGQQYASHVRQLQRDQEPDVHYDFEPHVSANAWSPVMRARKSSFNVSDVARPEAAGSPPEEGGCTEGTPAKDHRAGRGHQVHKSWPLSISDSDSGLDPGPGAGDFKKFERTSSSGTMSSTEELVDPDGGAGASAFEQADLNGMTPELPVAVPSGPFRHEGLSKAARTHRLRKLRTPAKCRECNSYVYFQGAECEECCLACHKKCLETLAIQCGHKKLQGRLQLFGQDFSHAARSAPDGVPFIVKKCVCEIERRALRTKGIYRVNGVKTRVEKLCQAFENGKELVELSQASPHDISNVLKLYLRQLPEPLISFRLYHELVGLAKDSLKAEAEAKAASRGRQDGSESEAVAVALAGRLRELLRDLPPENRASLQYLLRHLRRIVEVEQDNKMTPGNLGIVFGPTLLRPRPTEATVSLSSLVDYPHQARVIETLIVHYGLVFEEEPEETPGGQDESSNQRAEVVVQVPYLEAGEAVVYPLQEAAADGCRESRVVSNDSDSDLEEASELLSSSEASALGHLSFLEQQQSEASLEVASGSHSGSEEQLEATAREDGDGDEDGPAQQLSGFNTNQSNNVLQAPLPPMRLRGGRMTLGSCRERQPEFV
UniProt P13798: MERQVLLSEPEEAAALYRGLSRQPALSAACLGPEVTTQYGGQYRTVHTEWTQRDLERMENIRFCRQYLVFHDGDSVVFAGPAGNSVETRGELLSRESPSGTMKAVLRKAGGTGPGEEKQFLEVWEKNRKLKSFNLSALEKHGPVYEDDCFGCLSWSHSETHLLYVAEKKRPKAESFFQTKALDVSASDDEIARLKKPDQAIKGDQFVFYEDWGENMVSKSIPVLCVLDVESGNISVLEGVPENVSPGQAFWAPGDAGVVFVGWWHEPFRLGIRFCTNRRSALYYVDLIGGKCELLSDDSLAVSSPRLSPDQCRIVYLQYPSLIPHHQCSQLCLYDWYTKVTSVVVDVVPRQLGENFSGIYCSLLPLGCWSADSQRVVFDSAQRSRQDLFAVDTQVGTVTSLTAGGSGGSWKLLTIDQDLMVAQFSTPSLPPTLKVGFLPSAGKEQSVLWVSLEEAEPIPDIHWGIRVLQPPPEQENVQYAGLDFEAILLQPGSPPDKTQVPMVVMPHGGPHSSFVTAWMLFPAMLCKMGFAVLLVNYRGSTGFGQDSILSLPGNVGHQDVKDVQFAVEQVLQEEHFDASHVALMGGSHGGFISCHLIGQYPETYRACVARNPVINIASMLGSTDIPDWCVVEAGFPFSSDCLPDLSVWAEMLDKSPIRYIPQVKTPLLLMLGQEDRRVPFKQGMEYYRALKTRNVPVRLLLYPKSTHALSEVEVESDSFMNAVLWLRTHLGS

The other results are listed elsewhere or left out.

Compound in this assay: C1=CC=C(C=C1)[C@H](COC2=CC3=C(C=C2)NC(=O)N3)NC(=O)C4=CC=CN(C4=O)CC5=CC(=C(C=C5)F)F
The experiment in a line: log2 fold change, soluble protein after heating vs DMSO (PISA); higher = thermal stabilisation; K562 cells, 10 uM, 30 min; active = over 0.2 and 3.5 SD of the protein, either way, in both replicates (recomputed). Put shortly:
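K562 cells (2×10^6 cells/mL) were treated with 10 μM compound for 30 min, and aliquots were heated for 3 min over 48°C-58°C. Pooled aliquots were extracted in PBS with 0.5% NP-40 at 4°C, and the supernatant after 21,000xg for 90 min was measured by TMTpro 16plex LC-MS/MS with channel sums equalised. Reported thermal stability, relative to control samples and from duplicates, is a log2 fold change.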
Turning to ARFGAP1 (UniProt Q8N6T3), the log2 fold change is inactive: 0.033.
On to ANKMY2 (UniProt Q8IV38), for which the log2 fold change was inactive: -0.034.
For the target ANTKMT (UniProt Q9BQD7), the log2 fold change was inactive: -0.032.
With AP3M1 (UniProt Q9Y2T2) the figure was inactive: -0.051.
The result for ARFGAP3 (UniProt Q9NP61) reads inactive: -0.024; that for ARCN1 (UniProt P48444), inactive: -0.039; that for ARHGEF2 (UniProt Q92974), inactive: 0.008.
On to ANP32E (UniProt Q9BTT0), for which the log2 fold change is inactive: -0.092.
With AP2A1 (UniProt O95782) the figure was inactive: -0.001; with AP2A2 isoform 2 (UniProt O94973), inactive: -0.021.
With ARHGAP45 isoform 2 (UniProt Q92619) the figure was inactive: -0.027; with AP2M1 (UniProt C9JTK4), inactive: -0.113.
The result for ARGLU1 (UniProt Q9NWB6) reads inactive: 0.072; that for AP2M1 (UniProt Q96CW1), inactive: -0.005.
With ANXA2 (UniProt H0YMT9), the log2 fold change is inactive: 0.039.
With APEH (UniProt P13798) the figure was inactive: 0.018.
